Data from patent US20120093726A1, “Radiolabeled Fluorine Derivatives of Methionine” (priority 2009, published 2012).
Some of these results come from one statement about several compounds together.

Experiment: Radiochemical purity and stability in aqueous formulations (HPLC)
Format: physicochemical
Settings: different aqueous solutions
Description: The stability of [^18F]-L-FPHCys and [^18F]-D-FPHCys formulated in each of the following solutions: • 1) 5% EtOH/95% phosphate buffer, pH 6, 0.15 M (HLPC solvent) • 2) saline • 3) Dulbecco's phosphate buffered saline, pH 7 • 4) Phosphate buffer, pH 7. were analysed by HPLC using a Gemini 150×4.6 mm, 5 μm, eluting with 100% Phosphate Buffer, pH 11.5, 0.05 M at 1 mL/min, λ=226 nm.

In the case of “S-(3-[^18F]fluoropropyl)-D-homocysteine [[^18F]-D-FPHCys]”, the “radiochemical purity over a period of 4 h” value is reported as over 95%.
